{
  "sequences": {"note": "Chains of the proteins cited; added tags and fusions are not shown. Lines headed by an entry give the natural chain unless they say otherwise; changes in a name come on top.", "UniProt O75474": "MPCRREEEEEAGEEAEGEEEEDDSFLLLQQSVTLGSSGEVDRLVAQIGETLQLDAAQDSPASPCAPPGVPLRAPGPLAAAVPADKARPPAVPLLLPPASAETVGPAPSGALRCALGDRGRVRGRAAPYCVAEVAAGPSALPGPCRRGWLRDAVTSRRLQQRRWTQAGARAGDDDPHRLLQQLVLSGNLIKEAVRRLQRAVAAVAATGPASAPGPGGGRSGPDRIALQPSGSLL", "UniProt O95995": "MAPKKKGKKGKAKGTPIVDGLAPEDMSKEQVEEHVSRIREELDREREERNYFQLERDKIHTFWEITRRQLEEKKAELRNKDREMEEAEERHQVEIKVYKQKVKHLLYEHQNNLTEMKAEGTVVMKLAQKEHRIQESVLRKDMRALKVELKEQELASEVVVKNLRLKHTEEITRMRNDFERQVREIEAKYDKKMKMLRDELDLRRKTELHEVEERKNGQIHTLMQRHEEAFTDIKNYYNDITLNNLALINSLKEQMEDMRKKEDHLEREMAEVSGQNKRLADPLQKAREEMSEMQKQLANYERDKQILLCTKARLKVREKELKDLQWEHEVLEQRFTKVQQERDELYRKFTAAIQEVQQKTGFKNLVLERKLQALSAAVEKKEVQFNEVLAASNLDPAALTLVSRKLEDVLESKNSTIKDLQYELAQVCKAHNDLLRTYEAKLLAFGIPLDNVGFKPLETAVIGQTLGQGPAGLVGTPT", "UniProt O75791": "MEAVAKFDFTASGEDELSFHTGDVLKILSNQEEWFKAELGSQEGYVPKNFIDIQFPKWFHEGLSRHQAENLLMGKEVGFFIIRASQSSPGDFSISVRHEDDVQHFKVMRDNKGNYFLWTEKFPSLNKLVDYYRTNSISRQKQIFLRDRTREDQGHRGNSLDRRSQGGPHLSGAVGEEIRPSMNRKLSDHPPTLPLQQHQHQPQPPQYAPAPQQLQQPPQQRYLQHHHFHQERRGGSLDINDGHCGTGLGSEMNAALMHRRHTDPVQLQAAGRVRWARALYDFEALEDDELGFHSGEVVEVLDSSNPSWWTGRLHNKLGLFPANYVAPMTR", "UniProt O94972": "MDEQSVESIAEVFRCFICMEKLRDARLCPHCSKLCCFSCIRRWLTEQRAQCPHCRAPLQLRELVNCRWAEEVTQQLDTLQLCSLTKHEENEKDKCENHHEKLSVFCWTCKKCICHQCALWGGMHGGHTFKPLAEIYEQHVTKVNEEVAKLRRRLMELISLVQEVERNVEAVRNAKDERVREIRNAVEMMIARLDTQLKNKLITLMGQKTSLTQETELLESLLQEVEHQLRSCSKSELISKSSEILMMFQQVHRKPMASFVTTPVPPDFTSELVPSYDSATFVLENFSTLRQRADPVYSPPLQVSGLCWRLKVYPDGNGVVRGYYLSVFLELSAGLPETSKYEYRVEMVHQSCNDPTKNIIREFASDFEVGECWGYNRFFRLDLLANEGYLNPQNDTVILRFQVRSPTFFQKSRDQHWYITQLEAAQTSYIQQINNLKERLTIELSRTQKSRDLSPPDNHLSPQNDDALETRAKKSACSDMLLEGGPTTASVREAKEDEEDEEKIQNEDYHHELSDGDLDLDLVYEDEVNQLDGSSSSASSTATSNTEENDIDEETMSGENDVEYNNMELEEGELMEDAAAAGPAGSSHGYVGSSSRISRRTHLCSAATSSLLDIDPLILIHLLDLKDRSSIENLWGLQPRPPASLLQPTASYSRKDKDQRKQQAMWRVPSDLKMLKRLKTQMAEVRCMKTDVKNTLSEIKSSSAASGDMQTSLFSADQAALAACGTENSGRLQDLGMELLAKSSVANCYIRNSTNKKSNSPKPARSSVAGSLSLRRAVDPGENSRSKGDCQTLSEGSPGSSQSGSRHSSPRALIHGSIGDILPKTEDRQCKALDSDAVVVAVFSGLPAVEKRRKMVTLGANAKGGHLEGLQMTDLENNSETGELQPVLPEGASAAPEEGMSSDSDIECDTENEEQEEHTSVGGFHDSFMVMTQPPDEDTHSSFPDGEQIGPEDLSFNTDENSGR", "UniProt O75531": "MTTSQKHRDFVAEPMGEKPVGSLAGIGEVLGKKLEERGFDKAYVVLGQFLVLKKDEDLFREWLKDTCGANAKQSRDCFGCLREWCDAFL", "UniProt O95336": "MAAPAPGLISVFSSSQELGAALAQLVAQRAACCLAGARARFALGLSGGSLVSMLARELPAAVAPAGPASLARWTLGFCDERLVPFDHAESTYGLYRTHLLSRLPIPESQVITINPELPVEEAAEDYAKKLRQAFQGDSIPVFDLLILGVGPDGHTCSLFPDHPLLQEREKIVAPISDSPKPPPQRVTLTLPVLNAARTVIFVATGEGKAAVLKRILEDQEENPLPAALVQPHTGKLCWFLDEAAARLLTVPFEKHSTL", "UniProt O96015": "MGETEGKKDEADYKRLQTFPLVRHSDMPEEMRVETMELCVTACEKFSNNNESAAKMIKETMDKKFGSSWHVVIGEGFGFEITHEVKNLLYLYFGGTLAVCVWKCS", "UniProt O75390": "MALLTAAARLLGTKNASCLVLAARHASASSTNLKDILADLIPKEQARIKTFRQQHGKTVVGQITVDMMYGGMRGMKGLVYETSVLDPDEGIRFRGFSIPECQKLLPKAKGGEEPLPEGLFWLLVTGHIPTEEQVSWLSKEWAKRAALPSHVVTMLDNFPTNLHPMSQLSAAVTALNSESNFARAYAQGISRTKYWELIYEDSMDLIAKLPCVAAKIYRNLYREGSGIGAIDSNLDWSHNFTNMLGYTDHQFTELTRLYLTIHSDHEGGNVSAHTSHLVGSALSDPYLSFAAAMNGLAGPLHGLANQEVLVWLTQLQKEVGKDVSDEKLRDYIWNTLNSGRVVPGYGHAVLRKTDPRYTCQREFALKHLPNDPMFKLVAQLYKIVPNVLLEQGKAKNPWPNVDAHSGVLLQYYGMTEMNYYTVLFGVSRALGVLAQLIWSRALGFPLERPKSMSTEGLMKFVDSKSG", "UniProt O94887": "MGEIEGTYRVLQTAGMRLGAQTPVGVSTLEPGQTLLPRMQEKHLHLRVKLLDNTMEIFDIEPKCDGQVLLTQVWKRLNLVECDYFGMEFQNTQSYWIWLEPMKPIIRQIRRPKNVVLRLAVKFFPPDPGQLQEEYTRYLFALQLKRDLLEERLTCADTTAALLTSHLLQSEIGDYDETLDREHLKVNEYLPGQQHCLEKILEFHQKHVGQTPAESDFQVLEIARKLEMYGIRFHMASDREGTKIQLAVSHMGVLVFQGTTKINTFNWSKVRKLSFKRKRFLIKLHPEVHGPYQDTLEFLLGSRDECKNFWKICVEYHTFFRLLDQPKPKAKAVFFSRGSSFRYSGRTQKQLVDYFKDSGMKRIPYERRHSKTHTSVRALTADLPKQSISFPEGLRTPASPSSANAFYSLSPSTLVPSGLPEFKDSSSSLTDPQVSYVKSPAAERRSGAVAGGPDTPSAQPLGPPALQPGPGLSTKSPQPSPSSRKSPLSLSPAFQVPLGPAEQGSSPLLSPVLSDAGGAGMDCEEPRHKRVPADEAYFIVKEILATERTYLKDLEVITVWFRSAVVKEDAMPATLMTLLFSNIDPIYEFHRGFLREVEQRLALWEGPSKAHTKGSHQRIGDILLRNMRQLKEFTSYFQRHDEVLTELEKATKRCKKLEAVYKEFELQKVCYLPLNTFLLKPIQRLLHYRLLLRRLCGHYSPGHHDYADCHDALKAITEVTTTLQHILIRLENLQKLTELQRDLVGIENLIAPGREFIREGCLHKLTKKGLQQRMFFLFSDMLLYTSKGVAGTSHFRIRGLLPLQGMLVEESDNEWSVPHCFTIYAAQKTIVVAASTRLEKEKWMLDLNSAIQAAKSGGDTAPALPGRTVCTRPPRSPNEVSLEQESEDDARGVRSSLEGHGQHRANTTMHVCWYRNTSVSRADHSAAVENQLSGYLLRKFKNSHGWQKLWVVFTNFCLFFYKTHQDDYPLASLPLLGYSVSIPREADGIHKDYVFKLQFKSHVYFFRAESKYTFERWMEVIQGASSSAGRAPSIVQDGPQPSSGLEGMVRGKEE", "UniProt O94776": "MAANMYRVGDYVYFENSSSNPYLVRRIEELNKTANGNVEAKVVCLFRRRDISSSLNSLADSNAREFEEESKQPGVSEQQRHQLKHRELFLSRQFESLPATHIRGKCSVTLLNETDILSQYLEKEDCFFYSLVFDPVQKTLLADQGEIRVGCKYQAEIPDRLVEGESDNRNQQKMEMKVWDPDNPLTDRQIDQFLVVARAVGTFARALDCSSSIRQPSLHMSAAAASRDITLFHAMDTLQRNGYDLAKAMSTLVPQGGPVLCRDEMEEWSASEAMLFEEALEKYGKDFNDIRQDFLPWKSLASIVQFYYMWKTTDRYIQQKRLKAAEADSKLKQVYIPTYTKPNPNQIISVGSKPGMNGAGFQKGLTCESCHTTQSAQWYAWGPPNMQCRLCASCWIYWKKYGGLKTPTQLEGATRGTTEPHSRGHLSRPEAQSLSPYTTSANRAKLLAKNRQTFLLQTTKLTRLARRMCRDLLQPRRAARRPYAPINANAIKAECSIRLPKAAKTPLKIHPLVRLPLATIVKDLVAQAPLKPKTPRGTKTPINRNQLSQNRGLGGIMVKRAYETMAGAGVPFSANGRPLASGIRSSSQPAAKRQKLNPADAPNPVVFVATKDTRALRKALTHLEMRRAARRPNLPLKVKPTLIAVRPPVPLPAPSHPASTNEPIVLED", "UniProt O95081": "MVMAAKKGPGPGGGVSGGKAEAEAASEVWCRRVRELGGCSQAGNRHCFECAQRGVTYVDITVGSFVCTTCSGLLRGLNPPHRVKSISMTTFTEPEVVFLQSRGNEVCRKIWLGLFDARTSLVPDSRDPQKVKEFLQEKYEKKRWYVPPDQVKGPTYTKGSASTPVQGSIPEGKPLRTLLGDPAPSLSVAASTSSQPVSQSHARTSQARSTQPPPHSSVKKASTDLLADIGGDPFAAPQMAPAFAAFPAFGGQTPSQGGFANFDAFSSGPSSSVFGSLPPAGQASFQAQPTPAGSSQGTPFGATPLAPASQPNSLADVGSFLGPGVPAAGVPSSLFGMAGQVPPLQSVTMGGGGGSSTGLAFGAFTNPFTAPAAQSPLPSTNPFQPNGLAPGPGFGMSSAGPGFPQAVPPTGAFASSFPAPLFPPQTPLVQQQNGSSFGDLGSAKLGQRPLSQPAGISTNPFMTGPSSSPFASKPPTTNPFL", "UniProt O94889": "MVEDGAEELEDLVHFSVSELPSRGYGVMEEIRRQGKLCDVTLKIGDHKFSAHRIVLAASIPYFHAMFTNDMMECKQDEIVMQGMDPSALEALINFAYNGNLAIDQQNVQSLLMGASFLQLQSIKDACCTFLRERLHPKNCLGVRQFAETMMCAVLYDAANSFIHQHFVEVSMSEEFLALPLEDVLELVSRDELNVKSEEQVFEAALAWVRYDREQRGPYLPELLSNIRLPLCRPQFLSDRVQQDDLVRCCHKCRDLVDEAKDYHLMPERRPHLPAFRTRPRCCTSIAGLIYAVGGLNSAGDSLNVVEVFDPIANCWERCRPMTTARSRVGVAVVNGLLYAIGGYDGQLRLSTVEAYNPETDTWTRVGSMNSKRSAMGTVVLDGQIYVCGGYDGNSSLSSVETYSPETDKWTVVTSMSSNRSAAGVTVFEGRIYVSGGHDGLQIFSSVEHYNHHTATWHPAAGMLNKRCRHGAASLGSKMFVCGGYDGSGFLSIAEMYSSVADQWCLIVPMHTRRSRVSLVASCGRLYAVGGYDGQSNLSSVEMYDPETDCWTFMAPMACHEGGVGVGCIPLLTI", "UniProt O76075": "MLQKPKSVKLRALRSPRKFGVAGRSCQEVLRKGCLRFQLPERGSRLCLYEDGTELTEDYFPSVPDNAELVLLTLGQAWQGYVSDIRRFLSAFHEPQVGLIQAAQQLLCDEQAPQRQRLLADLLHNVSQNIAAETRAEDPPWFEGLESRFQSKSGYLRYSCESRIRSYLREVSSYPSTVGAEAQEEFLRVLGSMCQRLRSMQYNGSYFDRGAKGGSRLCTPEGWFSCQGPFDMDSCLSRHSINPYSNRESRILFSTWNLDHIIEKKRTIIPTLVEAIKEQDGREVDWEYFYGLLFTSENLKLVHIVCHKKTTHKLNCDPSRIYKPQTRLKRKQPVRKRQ", "UniProt O95394": "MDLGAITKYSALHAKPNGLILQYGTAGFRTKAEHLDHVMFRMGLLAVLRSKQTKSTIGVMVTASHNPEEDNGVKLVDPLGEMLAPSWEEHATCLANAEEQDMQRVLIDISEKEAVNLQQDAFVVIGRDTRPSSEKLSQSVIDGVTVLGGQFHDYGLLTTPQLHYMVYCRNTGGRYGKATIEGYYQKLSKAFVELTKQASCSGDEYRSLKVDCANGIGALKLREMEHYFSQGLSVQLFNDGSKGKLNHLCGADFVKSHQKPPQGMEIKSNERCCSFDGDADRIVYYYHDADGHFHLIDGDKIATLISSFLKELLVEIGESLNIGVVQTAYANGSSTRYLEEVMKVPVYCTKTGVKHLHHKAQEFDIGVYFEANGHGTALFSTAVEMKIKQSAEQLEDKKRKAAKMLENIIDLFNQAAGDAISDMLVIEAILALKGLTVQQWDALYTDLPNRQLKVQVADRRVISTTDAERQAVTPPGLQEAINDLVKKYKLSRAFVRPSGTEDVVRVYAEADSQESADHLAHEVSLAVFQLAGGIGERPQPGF"},
  "source": "the supplement of paper PMC12819154",
  "about": "“High-throughput peptide-centric local stability assay extends protein–ligand identification to membrane proteins, tissues and bacteria” (Nature Structural & Molecular Biology, 2025)",
  "note": "The other results are listed elsewhere or left out. Most entries show no effect beyond the scatter of the controls.",
  "data": [
    {"compound": "CN[C@@H]1C[C@H]2O[C@@](C)([C@@H]1OC)n1c3ccccc3c3c4c(c5c6ccccc6n2c5c31)C(=O)NC4 [staurosporine]", "test": "log2 fold change of tryptic peptide abundance, ligand vs vehicle (limited proteolysis) (log2 ratio); higher = more trypsin-susceptible (destabilized)", "settings": "ligand concentration: 20 uM; sample: K562 cleared lysate; digestion: 4 min, 22 C (HT-PELSA RT4min, Orbitrap Astral)", "values": [
      {"target": "UniProt O75474 (peptide sequence: LLQQLVLSGNLIK, peptide start residue: 202)", "log2 fold change": 0.0677},
      {"target": "UniProt O95995 (peptide sequence: EQVEEHVSR, peptide start residue: 29)", "log2 fold change": 0.789},
      {"target": "UniProt O94822 (peptide sequence: KSEQHLR, peptide start residue: 609)", "log2 fold change": 0.335},
      {"target": "SASH1 (peptide sequence: LGGGLAPDTSK, peptide start residue: 787) (UniProt O94885)", "log2 fold change": -0.572},
      {"target": "MYO1D (peptide sequence: KCTVSVETR, peptide start residue: 976) (UniProt O94832)", "log2 fold change": 0.701},
      {"target": "UniProt O95872 (peptide sequence: ANPIPTVLKR, peptide start residue: 282)", "log2 fold change": 0.151},
      {"target": "CAVIN2 (peptide sequence: GEDAAQAEK, peptide start residue: 2) (UniProt O95810)", "log2 fold change": -0.468},
      {"target": "GRAP2 (peptide sequence: HEDDVQHFK, peptide start residue: 98) (UniProt O75791)", "log2 fold change": 0.789},
      {"target": "ZFYVE9 (peptide sequence: VFCASCCSLK, peptide start residue: 727) (UniProt O95405)", "log2 fold change": 0.491},
      {"target": "AP2A1 (peptide sequence: YGGAPQALTLK, peptide start residue: 846) (UniProt O95782)", "log2 fold change": 0.739},
      {"target": "TRIM37 (peptide sequence: LQDLGMELLAK, peptide start residue: 732) (UniProt O94972)", "log2 fold change": 0.221},
      {"target": "BANF1 (peptide sequence: AYVVLGQFLVLKKDEDLFR, peptide start residue: 42) (UniProt O75531)", "log2 fold change": 0.959},
      {"target": "UniProt O95478 (peptide sequence: AQGETEVLK, peptide start residue: 126)", "log2 fold change": -0.28},
      {"target": "PGLS (peptide sequence: LLTVPFEK, peptide start residue: 247) (UniProt O95336)", "log2 fold change": 0.206},
      {"target": "UniProt O96015 (peptide sequence: LQTFPLVR, peptide start residue: 16)", "log2 fold change": 0.0375},
      {"target": "CS (peptide sequence: DILADLIPK, peptide start residue: 35) (UniProt O75390)", "log2 fold change": 0.306},
      {"target": "FARP2 (peptide sequence: GEIEGTYR, peptide start residue: 2) (UniProt O94887)", "log2 fold change": -0.143},
      {"target": "FAM13A (peptide sequence: ANTIPIIGSPSSK, peptide start residue: 848) (UniProt O94988)", "log2 fold change": 0.519},
      {"target": "MTA2 (peptide sequence: TPTQLEGATR, peptide start residue: 406) (UniProt O94776)", "log2 fold change": 0.358},
      {"target": "PAGE1 (peptide sequence: TGCELGDGPDTKR, peptide start residue: 71) (UniProt O75459)", "log2 fold change": -0.178},
      {"target": "AGFG2 (peptide sequence: KIWLGLFDAR, peptide start residue: 109) (UniProt O95081)", "log2 fold change": -0.192},
      {"target": "KLHL18 (peptide sequence: DLVDEAKDYHLMPER, peptide start residue: 255) (UniProt O94889)", "log2 fold change": 0.328},
      {"target": "DFFB (peptide sequence: VLGSMCQR, peptide start residue: 189) (UniProt O76075)", "log2 fold change": -0.181},
      {"target": "PGM3 (peptide sequence: YLEEVMKVPVYCTK, peptide start residue: 337) (UniProt O95394)", "log2 fold change": -0.28},
      {"target": "UniProt O75526 (peptide sequence: DSYSSSYGRSDR, peptide start residue: 324)", "log2 fold change": -0.356}
    ]}
  ]
}
